{
  "source": "paper PMC5231319",
  "binders": {"B1": {"name": "BMP4 (ligand, UniProt P12644 293-408)", "chain": "SPKHHSQRARKKNKNCRRHSLYVDFSDVGWNDWIVAPPGYQAFYCHGDCPFPLADHLNSTNHAIVQTLVNSVNSSIPKACCVPTELSAISMLYLDEYDKVVLKNYQEMVVEGCGCR"}},
  "molecular_target": "Myc-tagged Calreticulin (chick) (chick)",
  "assay": "co-IP; HEK-293T cells co-transfected with CALR-Myc and BMP4; medium immunoprecipitated with anti-Myc (control: mouse IgG), Sepharose beads, eluate blotted with anti-BMP4; Co-IP wash buffer 0.025 M Tris pH 7.4, 0.15 M NaCl, 0.001 M EDTA, 1% NP-40, 5% glycerol, 4 °C",
  "note": "Results are given in words; binding and its absence hold for the method and conditions named. Binding seen in cells or lysates may run through a third protein. A result given as binding can be weak or reduced; the word gives no strength.",
  "data": [
    {"binder": "B1", "values": [
      {"measurement": "binding", "value": "binds"}
    ]}
  ]
}
